Patent publication US20120148565A1
No constants are given. Whether binding was seen depends on the method and setting. Binding seen in cells or lysates may run through a third protein. Some results given as binding are weak or reduced against the parent protein; the word gives no strength. Where a sequence is shown, tags or fusion partners need not be part of it.

Amino acid sequences for entries named in this document (tags omitted). A change or cut given only in a name is not applied to a line headed by its entry.
UniProt Q9N2Z7: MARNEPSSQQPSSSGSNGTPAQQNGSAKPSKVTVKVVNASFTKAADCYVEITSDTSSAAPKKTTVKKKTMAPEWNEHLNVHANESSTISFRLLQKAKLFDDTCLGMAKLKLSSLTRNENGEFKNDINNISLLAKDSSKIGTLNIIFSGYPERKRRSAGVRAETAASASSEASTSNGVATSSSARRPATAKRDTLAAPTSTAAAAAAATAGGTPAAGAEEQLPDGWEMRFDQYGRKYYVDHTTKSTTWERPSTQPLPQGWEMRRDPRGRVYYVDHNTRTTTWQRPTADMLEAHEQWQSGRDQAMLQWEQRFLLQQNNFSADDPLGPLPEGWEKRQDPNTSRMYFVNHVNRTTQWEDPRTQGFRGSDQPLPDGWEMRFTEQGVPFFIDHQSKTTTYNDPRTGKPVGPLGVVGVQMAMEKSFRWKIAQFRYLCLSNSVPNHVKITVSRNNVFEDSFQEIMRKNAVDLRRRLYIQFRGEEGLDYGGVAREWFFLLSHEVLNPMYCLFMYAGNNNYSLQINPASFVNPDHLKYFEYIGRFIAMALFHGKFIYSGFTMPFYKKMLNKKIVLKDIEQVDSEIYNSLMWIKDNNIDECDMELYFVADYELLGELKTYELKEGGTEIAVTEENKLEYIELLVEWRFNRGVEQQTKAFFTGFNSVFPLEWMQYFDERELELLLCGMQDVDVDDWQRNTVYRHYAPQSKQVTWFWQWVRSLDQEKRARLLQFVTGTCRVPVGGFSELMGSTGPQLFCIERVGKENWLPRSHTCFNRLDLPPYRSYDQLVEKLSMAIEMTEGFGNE

Target: T1, UBC-18-Myc fusion protein (C. elegans UBC-18, full length, myc-His tag from pcDNA6/myc-His, expressed in NIH3T3 cells) (C. elegans) (UniProt Q21633)
T1 sequence: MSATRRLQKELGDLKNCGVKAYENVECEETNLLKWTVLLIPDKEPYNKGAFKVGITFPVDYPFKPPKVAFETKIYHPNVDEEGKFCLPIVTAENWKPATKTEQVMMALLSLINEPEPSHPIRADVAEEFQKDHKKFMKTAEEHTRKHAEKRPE
Assay: GST pull-down on glutathione agarose beads from NIH3T3 lysate, anti-myc immunoblot

Question: For “GST fused WWP-1 (C. elegans HECT E3 ubiquitin ligase WWP-1, full length, wild type, N-terminal GST from pGEX-KG) (from UniProt Q9N2Z7 1-794) (enzyme)”, which binding is on record?
Answer: binds
